This passage reports IC50 results from publication PMC8128204, “Development of 3-methyl/3-(morpholinomethyl)benzofuran derivatives as novel antitumor agents towards non-small cell lung cancer cells” (Journal of Enzyme Inhibition and Medicinal Chemistry, 2021).

Molecules are shown by their SMILES.

This assay deals with A549 cells. The assay is described as follows: MTT anti-proliferative assay, A549. Format: cell-based, human. Conditions: mean ± SD of three experiments. The method, then: The antiproliferative activity of the synthesised derivatives of the 3-methylbenzofuran series (4a–d, 6a–c, 8a–c and 11) and the 3-(morpholinomethyl)benzofuran series (15a–c, 16a–b, 17a–b and 18) was evaluated against non-small cell lung carcinoma (NSCLC) A549 and NCI-H23 cell lines, following the procedures of the MTT assay. […] 1. Anti-proliferative action toward human […] cell lines […]
The two examined human non-small cell lung carcinoma cell lines (A549 and NCI-H23) have been obtained from American Type Culture Collection (ATCC). The cells were maintained in Dulbecco's modified Eagle's medium (DMEM) supplemented with 10% heat inactivated fetal calf serum (GIBCO), penicillin (100 U/ml) and streptomycin (100 µg/ml) at 37 °C in humidified atmosphere containing 5% CO2. […]
flask in 5 ml of culture medium. The anti-proliferative activity of the tested 3-methylbenzofurans (4a-d, 6a-c, 8a-c and 11) and 3-(morpholinomethyl)benzofurans (15a-c, 16a-b, 17a-b and 18) measured in vitro using the MTT assay. […]
solution in PBS (5 mg/ml) was then added to all well including no cell blank and left to incubate for 90 min. […] DMSO (100 µl/well) was added to dissolve the formazan crystals with shaking for 10 min after which the absorbance was read at 590 nm against no cell blanks on a microplate reader. […]

For the compound `CN[C@@H]1C[C@H]2O[C@@](C)([C@@H]1OC)n1c3ccccc3c3c4c(c5c6ccccc6n2c5c31)C(=O)NC4` [Staurosporine, reference compound], the 50% inhibitory concentration (IC50) by setting is: (48 h) 1.52 ± 0.05 µM; (Homo sapiens, A549, 48 h) 1.5 µM.
